Experimental data reported in PubChem BioAssay AID445 (National Center for Advancing Translational Sciences (NCATS), 2006).
Some of the results follow. Further columns of the screen follow, without active or inactive calls. The list favours compounds with an active or inconclusive main result. Words in brackets tell the shape of the fitted curve; partial curves, single points and poor fits give uncertain potencies.

Experiment: IkB Signaling
Settings: ABC-DLBCL IkBa-CBG/CBR dual luciferase ratio (green luciferase fused to IkBa over red control in OCI-Ly3 lymphoma cells), 4 h; measured here: control luc red channel unless noted
Procedure, shortened: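 Luminescence ratio of IκBα-fused green versus native red beetle luciferase in OCI-Ly3 cells, 4 h post-doxycycline with compound; red signal alone, scaled from basal (0%) to zero light (-100%), flagged nonspecific or cytotoxic effects.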
In the case of `CCC(=O)Nc1ccc(NC(=O)c2ccccn2)cn1`, the AC50 is reported as 12.6 µM [falling, partial curve].
With `Cc1ccc(NC(=O)Cn2c(=O)n(CC(=O)NCCc3ccccc3)c(=O)c3ccccc32)cc1` the AC50 was 31.6 µM [falling, partial curve].
With `CSc1nc(NCc2ccco2)c2c3c(sc2n1)CN(C)CC3` the AC50 was 7.94 µM [falling, partial curve].
In the case of `COc1ccc(CNC(=O)CCc2c(C)nc3c4cccnc4nn3c2C)cc1`, the AC50 is reported as 12.6 µM [falling, partial curve].
With `COc1ccc(CC(=O)Nc2nnc3n2CCS3)cc1OC` the AC50 was 0.126 µM [falling, single point].
With `COc1ccc(C)cc1-n1c(SCC(=O)NCc2ccco2)nc2c([nH]c3ccccc32)c1=O` the AC50 was 25.1 µM [falling, partial curve].
For `O=C(CN1C(=O)COc2ccc(Cl)cc21)Nc1cccc(C(=O)O)c1`, the AC50 was 1.58 µM [rising, full curve, poor fit].
With `O=C(Nc1ccc(Br)cc1)c1cc(S(=O)(=O)N2CCc3ccccc32)ccc1F` the AC50 was 7.94 µM [falling, full curve].
In the case of `CCn1c(=O)c2sccc2n2c(CCCC(=O)Nc3ccc(Oc4ccccc4)cc3)nnc12`, the AC50 is reported as 15.8 µM [falling, single point].
In the case of `COc1ccc(-c2nc(-c3ccccc3)no2)c(OC)c1`, the AC50 is reported as 1.26 µM [falling, full curve].
With `COc1ccc(OC)c(NC(=O)N2CCC3(CC2)Oc2ccccc2C(=O)N3Cc2ccccc2F)c1` the AC50 was 10 µM [falling, partial curve].
In the case of `COc1ccc(-c2noc(CC(=O)N(C)c3cc(Cl)c(OC)cc3OC)n2)cc1`, the AC50 is reported as 15.8 µM [falling, partial curve].
For `CCCCN(C)C(=O)c1ccc2c(c1)NC(=O)C(CC(C)C)N2` (centres undefined), the AC50 was 3.16 µM [falling, partial curve].
For `Cc1ccc(NC(=O)c2nc(S(C)(=O)=O)ncc2N(Cc2ccco2)Cc2ccco2)cc1`, the AC50 was 25.1 µM [falling, single point].
In the case of `Cc1ccc(OCCSc2nc3ccccc3n2CCC(=O)O)cc1`, the AC50 is reported as 39.8 µM [falling, single point].
With `Cc1ccc(-c2nc(-c3cccs3)c(-c3cccs3)[nH]2)cc1` the AC50 was 6.31 µM [falling, partial curve].
For `Cc1cc(C)cc(OCC(=O)N(Cc2ccco2)Cc2ccccc2Cl)c1`, the AC50 was 25.1 µM [falling, partial curve].
In the case of `CC(C)NC(=O)c1cc(C(=O)c2cc(Cl)ccc2O)coc1=N`, the AC50 is reported as 5.01 µM [falling, partial curve].
For `CCCN(CCC)c1cc(C)nc2nc(-c3ccc(C(C)(C)C)cc3)nn12`, the AC50 was 0.2 µM [rising, full curve].
With `CCOC(=O)c1ccc(NC(=O)c2cc(=O)c3ccc(C)c(C)c3o2)cc1` the AC50 was 15.8 µM [rising, partial curve].
In the case of `O=C(COc1ccc(Br)cc1CO)Nc1ccccc1F`, the AC50 is reported as 7.94 µM [falling, partial curve].
For `CC(=O)N1CCc2cc(Br)cc(S(=O)(=O)CCC(=O)N3CCN(c4cccc(C)c4C)CC3)c21`, the AC50 was 3.16 µM [falling, partial curve].
With `COc1ccc(C(=O)N2CCN(C3CCC(c4ccccc4)CC3)CC2)cc1OC` (centres undefined) the AC50 was 39.8 µM [falling, single point].
In the case of `CC(C)(C)C1CCc2c(sc(NC(=O)c3cc(-c4ccc(F)cc4)on3)c2C#N)C1` (centres undefined), the AC50 is reported as 25.1 µM [falling, single point].
With `CSc1cccc(Nc2cc(C(=O)NC3CCCCC3)c3ccccc3n2)c1` the AC50 was 0.316 µM [falling, full curve].
With `CCCCCCSc1nc(N)c2c3c(sc2n1)CCCC3C` (centres undefined) the AC50 was 3.16 µM [rising, full curve].
For `CCOC(=O)N1CCN(Cc2nc3cc(NC(=O)CC(C)C)ccc3n2C(C)C)CC1`, the AC50 was 5.01 µM [rising, full curve, poor fit].
For `COc1cccc(-c2noc(-c3cc4ccccc4oc3=O)n2)c1OC`, the AC50 was 2.51 µM [falling, partial curve].
For `Nc1nonc1-c1nc2ccccc2n1CC(=O)Nc1cccc(C(F)(F)F)c1`, the AC50 was 39.8 µM [falling, single point].
For `CC1=C(C(=O)Nc2ccccc2)C(c2ccc(F)cc2)n2nc(SCc3cc(C)ccc3C)nc2N1` (centres undefined), the AC50 was 2.51 µM [rising, full curve, poor fit].
With `COCCn1c(C)cc(O)c(C(c2ccccc2)N2CCCCC2)c1=O` (centres undefined) the AC50 was 0.1 µM [falling, single point].
In the case of `CCc1ccccc1NC(=O)N1CCN(Cc2nc3ccc(C)cc3o2)CC1`, the AC50 is reported as 10 µM [falling, partial curve].
With `Cc1ccc(-n2ncc3c(Nc4ccc(Oc5ccccc5)cc4)ncnc32)cc1` the AC50 was 7.94 µM [falling, full curve].
For `Cc1c(C(=O)Nc2cccc(C(F)(F)F)c2)sc2nc3n(c(=O)c12)CCC3`, the AC50 was 31.6 µM [falling, single point].
With `CC(C)Cc1nn2c(=O)cc(COC(=O)c3cccc(NC(=O)c4ccccc4)c3)nc2s1` the AC50 was 3.98 µM [falling, partial curve].
With `Cc1cccc(N2CCN(C(=O)c3cc4ccc5cccnc5c4[nH]3)CC2)c1C` the AC50 was 20 µM [falling, partial curve].
For `C=CCOC(=O)C1=C(C)NC(SC)=C(C#N)C1c1ccc(OCC)cc1` (centres undefined), the AC50 was 25.1 µM [falling, partial curve].
For `CCC(C)[C@@H](C(=O)Nc1ccc2c(c1)OCO2)N1Cc2ccccc2C1=O` (some centres undefined), the AC50 was 15.8 µM [falling, partial curve].
For `CC(C)Oc1ccc(C(=O)NCCc2csc(-c3cccc(F)c3)n2)cc1`, the AC50 was 12.6 µM [falling, partial curve].
For `Cc1ccccc1NC(=O)c1c(C)oc2ccc(O)c(CN(C)Cc3ccccc3)c12`, the AC50 was 12.6 µM [falling, partial curve].
With `CCCCCn1c(CCCNC(=O)c2ccccc2)nc2ccccc21` the AC50 was 12.6 µM [falling, partial curve].
With `O=C(Nc1ncc(Cc2ccc(F)cc2)s1)c1ccc2c(c1)CC(c1ccccc1)OC2=O` (centres undefined) the AC50 was 12.6 µM [rising, partial curve].
With `COc1cccc(NC(=O)Cn2c(=O)n(-c3ccc(C)cc3)c(=O)c3ccccc32)c1` the AC50 was 25.1 µM [falling, single point].
For `CCN(CCCNC(=O)CCc1nc(-c2ccc(C)cc2)no1)c1cccc(C)c1`, the AC50 was 12.6 µM [falling, partial curve].
With `Cc1ccccc1NC(=O)CSc1nccn1C` the AC50 was 0.631 µM [rising, full curve, poor fit].
With `Cc1ccc(-c2noc(CN(C(=O)c3cccs3)C(C)C)n2)cc1` the AC50 was 25.1 µM [falling, single point].
For `CCCSc1nnc(NC(=O)c2cc(=O)c3ccccc3o2)s1`, the AC50 was 39.8 µM [falling, single point].
In the case of `CCOC(=O)N1CCc2c(sc3c2c(=O)n(CCc2ccccc2)c(=O)n3CC(=O)Nc2ccccc2C)C1`, the AC50 is reported as 20 µM [falling, single point].
For `CCCN1CCN(CCCNC(=O)c2cc3c(s2)-c2c(C)cccc2OC3)CC1`, the AC50 was 0.2 µM [falling, full curve, poor fit].
In the case of `Cc1ccc(NC(=O)C2CCN(C(=O)c3sc4nc[nH]c(=O)c4c3C)CC2)cc1F`, the AC50 is reported as 3.98 µM [rising, full curve].
For `Nc1c(C(=O)NC2CCCC2)c2nc3ccccc3nc2n1N`, the AC50 was 5.01 µM [falling, partial curve].
With `COCCn1c(C)cc(O)c(C(c2cccc(F)c2)N2CCN(c3ccccc3)CC2)c1=O` (centres undefined) the AC50 was 0.398 µM [falling, full curve].
For `COc1ccc(N(CC(=O)N2CCN(c3cccc(Cl)c3)CC2)S(=O)(=O)c2c(C)noc2C)cc1`, the AC50 was 3.16 µM [falling, single point].
For `CCOc1ccc(C(=O)N2CC(=O)Nc3ccc(F)cc3C2c2ccc(F)cc2)cc1` (centres undefined), the AC50 was 31.6 µM [falling, single point].
For `CC(C)Cn1cc(C(=O)N2CCN(c3ccccn3)CC2)c2c3ccccc3n(C)c2c1=O`, the AC50 was 12.6 µM [falling, partial curve].
In the case of `N#Cc1c(N2C(=O)C3C4C=CC(C4)C3C2=O)sc2c1CCC2` (centres undefined), the AC50 is reported as 31.6 µM [falling, single point].
In the case of `Cc1cc(C)c(NC(=O)C(C)n2nc(C)c3sc4ccccc4c3c2=O)c(C)c1` (centres undefined), the AC50 is reported as 3.98 µM [rising, partial curve, poor fit].
With `COc1cccc(N2CC(NC(=O)c3cccs3)CC2=O)c1` (centres undefined) the AC50 was 7.94 µM [rising, partial curve].
For `O=S(=O)(NCC(c1ccco1)S(=O)(=O)c1cccs1)c1ccccc1` (centres undefined), the AC50 was 6.31 µM [falling, full curve].
For `Cc1ccc(OC(C)C(=O)N2CCN(CCc3ccccn3)CC2)cc1C` (centres undefined), the AC50 was 10 µM [falling, partial curve].
For `CCCc1nnc(NC(=O)CSc2nnc3c4ccccc4n(CC)c3n2)s1`, the AC50 was 39.8 µM [falling, single point].
With `Cc1cccc(C(=O)Nc2ccccc2C(=O)OCc2c(C)noc2C)c1` the AC50 was 25.1 µM [falling, partial curve].
For `Cc1ccc2nc(CN3CCN(C(=O)Nc4ccc(C)c(F)c4)CC3)oc2c1`, the AC50 was 39.8 µM [falling, single point].
In the case of `COc1ccc(CCNC(=O)c2ccc(Cn3c(=O)c4ccccc4n(Cc4ccc(C)cc4)c3=O)cc2)cc1OC`, the AC50 is reported as 0.01 µM [rising, full curve, poor fit].
